{"source": "PubChem BioAssay AID1224830 (NIAID, 2016)", "purpose": "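Regulators of TLR4 signalling towards TNF-alpha in macrophage-like cells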 (primary screen)", "system": "human THP-1 monocytic leukaemia cells, TNF dual-luciferase reporter clone, PMA-differentiated to macrophage-like cells", "knock-down reagent": "siRNA pool against human genes, 50 nM", "timing": "LPS for 4 h, given about 3 days after siRNA transfection", "conditions": "bacterial LPS (TLR4 ligand), 10 ng/ml", "read-out": "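Ratio of firefly to renilla light, scaled to the plate median and expressed as a robust z-score per replicate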", "scale": "TNF reporter robust z-score: higher = stronger TNF reporter response to LPS", "hit rule": "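a well is active when its z-score exceeds 2.8 or falls below -1.5; control wells carry no call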", "note": "The whole screen tested about 18,000 reagents; this is a part drawn at random. About 2,900 of all reagents (16%) were called active. 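Calls are made per well; low scores hint the gene aids the LPS response, high scores that it dampens it.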 Repeated entries: four replicate wells of each siRNA pool."}
{"gene": "CFAP69 (GeneID 79846)", "TNF reporter robust z-score": 1.37, "activity call": "inactive"}
{"gene": "CFAP69 (GeneID 79846)", "TNF reporter robust z-score": 0.07, "activity call": "inactive"}
{"gene": "CFAP69 (GeneID 79846)", "TNF reporter robust z-score": 0.11, "activity call": "inactive"}
{"gene": "CFAP69 (GeneID 79846)", "TNF reporter robust z-score": 0.88, "activity call": "inactive"}
{"gene": "SPHAR (retired record) (GeneID 10638)", "TNF reporter robust z-score": 0.2, "activity call": "inactive"}
{"gene": "SPHAR (retired record) (GeneID 10638)", "TNF reporter robust z-score": -0.15, "activity call": "inactive"}
{"gene": "SPHAR (retired record) (GeneID 10638)", "TNF reporter robust z-score": -0.13, "activity call": "inactive"}
{"gene": "SPHAR (retired record) (GeneID 10638)", "TNF reporter robust z-score": 0.16, "activity call": "inactive"}
{"gene": "SLC25A20 (GeneID 788)", "TNF reporter robust z-score": 0.4, "activity call": "inactive"}
{"gene": "SLC25A20 (GeneID 788)", "TNF reporter robust z-score": 1.33, "activity call": "inactive"}
{"gene": "SLC25A20 (GeneID 788)", "TNF reporter robust z-score": 1.4, "activity call": "inactive"}
{"gene": "SLC25A20 (GeneID 788)", "TNF reporter robust z-score": 1.85, "activity call": "inactive"}
{"gene": "NUP210L (GeneID 91181)", "TNF reporter robust z-score": -1.24, "activity call": "inactive"}
{"gene": "NUP210L (GeneID 91181)", "TNF reporter robust z-score": -0.67, "activity call": "inactive"}
{"gene": "NUP210L (GeneID 91181)", "TNF reporter robust z-score": -1.46, "activity call": "inactive"}
{"gene": "NUP210L (GeneID 91181)", "TNF reporter robust z-score": -0.4, "activity call": "inactive"}
{"gene": "PRR5-ARHGAP8 (GeneID 553158)", "TNF reporter robust z-score": -0.5, "activity call": "inactive"}
{"gene": "PRR5-ARHGAP8 (GeneID 553158)", "TNF reporter robust z-score": -0.12, "activity call": "inactive"}
{"gene": "PRR5-ARHGAP8 (GeneID 553158)", "TNF reporter robust z-score": -0.97, "activity call": "inactive"}
{"gene": "PRR5-ARHGAP8 (GeneID 553158)", "TNF reporter robust z-score": 0, "activity call": "inactive"}
{"gene": "DSCR10 (GeneID 259234)", "TNF reporter robust z-score": 1.78, "activity call": "inactive"}
{"gene": "DSCR10 (GeneID 259234)", "TNF reporter robust z-score": 1.4, "activity call": "inactive"}
{"gene": "DSCR10 (GeneID 259234)", "TNF reporter robust z-score": 1.7, "activity call": "inactive"}
{"gene": "DSCR10 (GeneID 259234)", "TNF reporter robust z-score": 1.08, "activity call": "inactive"}
{"gene": "CYP11B1 (GeneID 1584)", "TNF reporter robust z-score": 0.7, "activity call": "inactive"}
{"gene": "CYP11B1 (GeneID 1584)", "TNF reporter robust z-score": 0.29, "activity call": "inactive"}
{"gene": "CYP11B1 (GeneID 1584)", "TNF reporter robust z-score": 1.4, "activity call": "inactive"}
{"gene": "CYP11B1 (GeneID 1584)", "TNF reporter robust z-score": 1.12, "activity call": "inactive"}
{"gene": "SYNPR (GeneID 132204)", "TNF reporter robust z-score": -0.76, "activity call": "inactive"}
{"gene": "SYNPR (GeneID 132204)", "TNF reporter robust z-score": -0.49, "activity call": "inactive"}
{"gene": "SYNPR (GeneID 132204)", "TNF reporter robust z-score": 1.41, "activity call": "inactive"}
{"gene": "SYNPR (GeneID 132204)", "TNF reporter robust z-score": 0.17, "activity call": "inactive"}
{"gene": "UBXN4 (GeneID 23190)", "TNF reporter robust z-score": -0.96, "activity call": "inactive"}
{"gene": "UBXN4 (GeneID 23190)", "TNF reporter robust z-score": -0.56, "activity call": "inactive"}
{"gene": "UBXN4 (GeneID 23190)", "TNF reporter robust z-score": -0.6, "activity call": "inactive"}
{"gene": "UBXN4 (GeneID 23190)", "TNF reporter robust z-score": -0.47, "activity call": "inactive"}
{"gene": "FMO4 (GeneID 2329)", "TNF reporter robust z-score": -0.97, "activity call": "inactive"}
{"gene": "FMO4 (GeneID 2329)", "TNF reporter robust z-score": 0.01, "activity call": "inactive"}
{"gene": "FMO4 (GeneID 2329)", "TNF reporter robust z-score": 0.58, "activity call": "inactive"}
{"gene": "FMO4 (GeneID 2329)", "TNF reporter robust z-score": -0.29, "activity call": "inactive"}
{"gene": "AGTPBP1 (GeneID 23287)", "TNF reporter robust z-score": 0.56, "activity call": "inactive"}
{"gene": "AGTPBP1 (GeneID 23287)", "TNF reporter robust z-score": 0.64, "activity call": "inactive"}
{"gene": "AGTPBP1 (GeneID 23287)", "TNF reporter robust z-score": 0.34, "activity call": "inactive"}
{"gene": "AGTPBP1 (GeneID 23287)", "TNF reporter robust z-score": 1.43, "activity call": "inactive"}
{"gene": "OR1L1 (GeneID 26737)", "TNF reporter robust z-score": 2.46, "activity call": "inactive"}
{"gene": "OR1L1 (GeneID 26737)", "TNF reporter robust z-score": 1.71, "activity call": "inactive"}
{"gene": "OR1L1 (GeneID 26737)", "TNF reporter robust z-score": 2.61, "activity call": "inactive"}
{"gene": "OR1L1 (GeneID 26737)", "TNF reporter robust z-score": 2.96, "activity call": "active"}

2 entries from above, arranged by “TNF reporter robust z-score”, descending:
{"gene": "AGTPBP1 (GeneID 23287)", "TNF reporter robust z-score": 0.64, "activity call": "inactive"}
{"gene": "AGTPBP1 (GeneID 23287)", "TNF reporter robust z-score": 0.34, "activity call": "inactive"}
